Results as given in the supplement of paper PMC9433722.
Counter-ions that a name gives are not always drawn. This is one part of the list. Single values are uncertain, as repeats are few or missing.

These compounds were tested on U2OS (assay: cell viability (CCK-8) relative to DMSO control (% of control); higher = less cytotoxic). Details: 10 µM; 48 h.
In the case of `CC(=O)[C@]1(O)Cc2c(O)c3c(c(O)c2[C@@H](O[C@H]2C[C@H](N)[C@H](O)[C@H](C)O2)C1)C(=O)c1ccccc1C3=O` [Idarubicin . Hydrochloride], the cell viability is reported as 23.6. With `Nc1c2c(nc3ccccc13)CCCC2` [Tacrine·HCl] the cell viability was 110. `Cc1onc(-c2ccccc2Cl)c1C(=O)N[C@@H]1C(=O)N2[C@@H]1SC(C)(C)[C@@H]2C(=O)O` [Cloxacillin·Na] showed a cell viability of 88.8. In the case of `Nc1nc(Cl)nc2c1ncn2[C@@H]1O[C@H](CO)[C@@H](O)[C@@H]1F` [Clofarabine], the cell viability is reported as 99.1. Work on `CN(C)c1cc(NC(=O)CNC(C)(C)C)c(O)c2c1C[C@H]1C[C@H]3[C@H](N(C)C)C(O)=C(C(N)=O)C(=O)[C@@]3(O)C(O)=C1C2=O` [Tigecycline] yielded a cell viability of 94.5. Work on `CN1CCN2c3ncccc3Cc3ccccc3C2C1` (stereo unspecified) [Mirtazapine] yielded a cell viability of 103. With `CC(=O)Oc1cc2c(s1)CCN(C(C(=O)C1CC1)c1ccccc1F)C2` (stereo unspecified) [Prasugrel] the cell viability was 83.4. `C=C[C@H]1CN2CC[C@H]1C[C@@H]2[C@@H](O)c1ccnc2ccc(OC)cc12` [Quinidine hydrochloride monohydrate] showed a cell viability of 130. With `Cc1ccc(O)c([C@H](CCN(C(C)C)C(C)C)c2ccccc2)c1` [Tolterodine Tartrate] the cell viability was 110. For `N=C(N)N` [Guanidine·HCl], the cell viability was 110. `Nc1ccn([C@@H]2CS[C@H](CO)O2)c(=O)n1` [Lamivudine] showed a cell viability of 85.6.
